Results are given in words; binding and its absence hold for the method and conditions named. Some binding calls cover weakened binding; strength is not graded here.
Biological target: T1, fibronectin EDB (UniProt P02751 1266-1356, limits assumed, biotin (site not stated))
T1 construct: domain: EDB; Biotin-EDB, 2000 RU, immobilised on a streptavidin SA chip; also called Biotin-EDB; fibronectin extra domain B (ED-B)
Assay: SPR, BIAcore X

Amino acid sequences for entries named in this document (tags omitted). Residues count along the entry.
UniProt P02751, residues 1266-1356: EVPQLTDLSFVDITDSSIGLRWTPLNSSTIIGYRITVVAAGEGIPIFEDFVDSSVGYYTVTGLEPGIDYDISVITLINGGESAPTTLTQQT

- binding: binds
B1: L-Aptide1EDB (designed binder)
peptide: HCSSAVGSWTWENGKWTWKGIIRLEQ
notes: Synthetic 26-mer, all L-amino acids; also called Aptide1EDB (L-form)

Source: US20140296479A1, “D-APTIDE AND RETRO-INVERSO APTIDE WITH MAINTAINED TARGET AFFINITY AND IMPROVED STABILITY” (GWANGJU INSTITUTE OF SCIENCE AND TECHNOLOGY, priority 2011, published 2014)
